Values of other authors, collected in US8653052B2, “Drug combination and its use in the treatment of muscle loss” (Acacia Pharma Limited, priority 2007, dated 2014).
Where a name gives a salt, the structure may show the parent alone.

Tested on: rats and mice bearing highly cachectic tumors
Conditions: cited from earlier work

Q: Which “Effect on muscle wasting” value does the source give for `COc1ccc(CC(C)NCC(O)c2ccc(O)c(NC=O)c2)cc1` (racemic) [racemic formoterol, (±)-N-[2-Hydroxy-5-[1(R*)-hydroxy-2-[1(R*)-methyl-2-(4-methoxyphenyl)ethylamino]ethyl]phenyl]formamide fumarate (2:1) monohydrate] here?
A: reversal of the muscle-wasting process
